Results reported in ChEMBL document CHEMBL1124320, “2,2-Difluoro-5-hexyne-1,4-diamine: a potent enzyme-activated inhibitor of ornithine decarboxylase” (J Med Chem, 1989).

Target: T1, Ornithine decarboxylase (Rattus norvegicus, UniProt P09057)
T1 sequence (P09057 whole entry): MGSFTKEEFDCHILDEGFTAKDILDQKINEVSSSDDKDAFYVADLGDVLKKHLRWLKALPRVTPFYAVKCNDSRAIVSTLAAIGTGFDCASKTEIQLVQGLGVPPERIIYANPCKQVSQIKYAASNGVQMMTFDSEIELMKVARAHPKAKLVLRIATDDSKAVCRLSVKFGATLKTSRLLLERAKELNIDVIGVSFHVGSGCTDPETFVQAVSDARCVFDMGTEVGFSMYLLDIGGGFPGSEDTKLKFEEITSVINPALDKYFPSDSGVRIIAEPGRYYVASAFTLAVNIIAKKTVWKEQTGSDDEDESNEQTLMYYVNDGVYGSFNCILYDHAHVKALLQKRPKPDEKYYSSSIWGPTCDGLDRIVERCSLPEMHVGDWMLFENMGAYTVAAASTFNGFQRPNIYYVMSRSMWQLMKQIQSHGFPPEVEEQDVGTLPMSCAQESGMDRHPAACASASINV
Assay: In vitro inhibition against ornithine decarboxylase
Procedure, shortened: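 Time-dependent inactivation of partially purified rat liver ODC (thioacetamide-induced, acid treatment at pH 4.6). Enzyme incubated at 37 °C in 30 mM phosphate pH 7.1, 5 mM DTT and 0.1 mM pyridoxal phosphate with varied inhibitor concentrations. Aliquots were assayed at intervals. Half-inactivation times were plotted against 1/[I] (Kitz–Wilson, least-squares fit) to give apparent K_I and τ1/2.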

C#CC(N)CC(F)(F)CN (stereo unspecified)
Ki: 10 µM
